Results taken from article PMC6332004, “Transport of Twelve Coumarins from Angelicae Pubescentis Radix across a MDCK-pHaMDR Cell Monolayer—An in Vitro Model for Blood-Brain Barrier Permeability” (Molecules, 2015).

Key:
in vitro = settings: dog, MDCK-MDR1, pH 7.4
[1] = test system: MDCK-pHaMDR cell monolayer; experiment: Bidirectional transport across MDCK-pHaMDR cell monolayer (in vitro BBB model); settings: AP to BL; coumarins 50 µM, caffeine 10 µM, atenolol 200 µM; 90 min; mean ± S.D., n = 6

Papp A→B at 90 min (in vitro): 0.761 ×10⁻⁶ cm/s
Papp AP-BL [1]: 0.76 ± 0.16 ×10^−6 cm/s
SMILES: CC(C)NCC(O)COc1ccc(CC(N)=O)cc1 (centres unmarked) [Atenolol, atenolol, reference compound]
